{"source": "patent US12178821B2", "about": "“Combination therapies for the treatment of cancer” (Curis, Inc., priority 2021, dated 2024)", "key": {"F-36P": {"system": "F-36P", "assay": "CellTiter Glo cell viability assay, GI50, 72 hrs", "format": "cell-based", "method": "(§1) CellTiter Glo cell viability assay was used to evaluate the antitumor effects of Compound 1 in combination with AML SOC drugs daunorubicin, Ara-C, decitabine, azacitidine and venetoclax in FLT3-WT AML cell lines THP-1, F-36P, OCl-AML2 and GDM-1. GI50 (the concentration for 50% of maximal inhibition of cell proliferation) was determined for each drug in AML cell lines.\n(§2) Cells were treated for 72 hrs. Relative cell viability was measured by CellTiter Glo assay (Promega, Madison, WI) at 0 and at 72 hrs. GI50 was calculated using GraphPad Prism 8.0 software."}, "THP-1": {"system": "THP-1", "assay": "CellTiter Glo cell viability assay, GI50, 72 hrs", "format": "cell-based", "method": "as §1, §2"}}, "note": "For at least one compound, name, drawing or mass did not settle the structure.", "data": [{"smiles": "CC1(C)CCC(CN2CCN(c3ccc(C(=O)NS(=O)(=O)c4ccc(NCC5CCOCC5)c([N+](=O)[O-])c4)c(Oc4cnc5[nH]ccc5c4)c3)CC2)=C(c2ccc(Cl)cc2)C1", "note": "[Venetoclax]", "values": [{"measurement": "resistance of the cell line to clinically relevant concentrations", "setting": "F-36P", "value": "resistant"}, {"measurement": "resistance of the cell line to clinically relevant concentrations", "setting": "THP-1", "value": "resistant"}]}]}
